{"source": "patent US8101612B2", "about": "“Phthalazine compounds and methods of use” (Amgen Inc., priority 2006, dated 2012)", "tested_on": "production of TNF by monocytes activated with bacterial lipopolysaccharide (LPS)", "experiment": "Lipopolysaccharide-activated monocyte TNF production assay (whole blood monocyte assay, LPS induced TNF release)", "type": "cell-based, human", "method": "Lipopolysaccharide-Activated Monocyte TNF Production Assay\nTest compounds were evaluated in vitro for the ability to inhibit the production of TNF by monocytes activated with bacterial lipopolysaccharide (LPS). Fresh residual source leukocytes (a byproduct of plateletpheresis) were obtained from a local blood bank, and peripheral blood mononuclear cells (PBMCs) were isolated by density gradient centrifugation on Ficol-Paque Plus (Pharmacia). PBMCs were suspended at 2×10^6/mL in DMEM supplemented to contain 2% FCS, 10 mM, 0.3 mg/mL […], 100 U/mL penicillin G and […] streptomycin sulfate (complete media). Cells were plated into Falcon flat bottom, 96 well culture plates (200 μL/well) and cultured overnight at 37° C. and 6% CO2. Non-adherent cells were removed by washing with 200 μl/well of fresh medium. Wells containing adherent cells (˜70% monocytes) were replenished with 100 μL of fresh medium.\nPreparation of Test Compound Stock Solutions\nTest compounds were dissolved in […]. Compound stock solutions were prepared to an initial concentration of […]. Stocks were diluted initially to 20-200 μM in complete media. […]\nOne hundred microliters of each test compound dilution were added to microtiter wells containing adherent monocytes and 100 μL complete medium. […] Culture supernatants were then removed and TNF presence in the supernatants was quantified using an ELISA. […]", "note": "Some results were stated once for a whole list of compounds, not compound by compound. At least one structure is not confirmed: it was looked up by name or label, or the drawing left a doubt.", "data": [{"smiles": "CCn1nccc1NC(=O)c1ccc(C)c(-c2ccc3c(N4CCOC[C@@H]4C)nncc3c2)c1", "note": "[Example 16]", "values": [{"measurement": "IC50", "result": "≤ 10", "unit": "nM"}]}]}
